These results are taken from PubChem BioAssay AID1487 (National Center for Advancing Translational Sciences (NCATS), 2009).

Some of the results follow. These are further read-outs of the screen, such as a control signal, another cell line or another target. No call is given for them. Compounds called inactive in the main read-out are mostly missing here. The note in brackets gives the kind of curve behind each potency; many fits are weak.

This experiment is described as follows: qHTS Assay for Modulators of Lamin A Splicing. The conditions noted are these: HeLa LMNA splicing GFP/RFP minigene ratio, 48 h. The essentials:
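S3 HeLa cells stably expressing lamin A-EGFP splicing minigene plus DsRed2, 600 cells/well, 48 h compound exposure at 37C. Laser-scanning cytometry; analysed as GFP (500-530 nm)/RFP (575-640 nm) total intensity ratio; 0.5% DMSO vehicle.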

[1] abbreviates: measured here: RFP viability control channel.
The mark [2] stands for this setting: measured here: GFP splicing reporter channel.

With `O=[N+]([O-])c1cc(/C=N/Nc2nc3ccccc3[nH]2)c(O)cc1O`, the AC50 under setting [1] is 3.98 µM [rising, full curve]. `CCCC1=Nc2cc(C(=O)NC3CCCCC3)ccc2Sc2ccc(C)cc21`: under setting [2], the AC50 was 0.158 µM [falling, full curve, poor fit]. For the compound `CCOC(=O)C1C(=O)Nc2nc3ccccc3n2C1C(C)C` (stereo not given), under setting [1], the AC50 was 0.0708 µM [falling, full curve, poor fit]. In the case of `CCOC(=O)c1c(NC(=O)COc2ccccc2)sc(C(C)=O)c1C`, the AC50 under setting [2] is 0.794 µM [falling, full curve, poor fit]. For `CCOC(=O)N1CCC(NCCNC(=O)c2ccccc2)CC1`, the AC50 under setting [2] was 6.31 µM [rising, single point].

Turning to `O=C(Nc1ccc(Cl)cc1)Nc1nnc(SCc2ccccc2)s1`, under setting [1], the AC50 is 25.1 µM [rising, single point]. Same read-out and setting: the figure for `Nc1ncc(-c2ccc([N+](=O)[O-])cc2)cn1` is 20 µM [rising, single point].

As to `O=C(CSc1nc(=O)n(Cc2ccncc2)c2c1CCC2)Nc1cccc(F)c1`, the AC50 runs as follows: under setting [2], 0.0447 µM [falling, full curve, poor fit]; under setting [1], 0.0562 µM [falling, full curve, poor fit].

Take `Cc1ccc(NC(=O)/C(C#N)=C/c2ccccc2C(F)(F)F)cc1`: under setting [1], the half-maximal activity concentration (AC50) is 0.0891 µM [rising, full curve]. Turning to `O=c1cc(CSc2nnnn2-c2ccccc2)nc(Nc2ccc(F)cc2)[nH]1`, the AC50 under setting [1] is 35.5 µM [rising, single point].

As for `CC(=O)c1ccc(N2CCC(c3cc(-c4ccc(Cl)cc4Cl)n[nH]3)CC2)c([N+](=O)[O-])c1`, the AC50 under setting [1] was 35.5 µM [falling, single point]. Still for that read-out and setting: the same measure for `C/C(CCN1CCc2nc(-c3ccccc3)c(-c3ccccc3)cc2C1)=N\O[C@H](C)c1cn([C@H](CO)Cc2ccccc2)nn1`: 35.5 µM [rising, single point]. For `O=C(Nc1nc(-c2ccccc2Cl)cs1)c1cccnc1`, the AC50 by setting is: under setting [2], 12.6 µM [rising, single point]; under setting [1], 14.1 µM [rising, single point]. With `CCOC(=O)C1CCN(CCC(=O)Nc2ccc(C)cc2)CC1`, the AC50 under setting [1] is 1.58 µM [falling, partial curve, poor fit]. For the compound `CN(C)CCCN1C(=O)C(=O)/C(=C(/O)c2ccncc2)C1c1ccccc1` (stereo not given), the AC50 under setting [1] was 35.5 µM [rising, single point]. On to `CC(=O)Nc1ccc(Cc2ccc3[nH]c(=O)cc(C)c3c2)cc1`, for which the AC50 under setting [2] is 15.8 µM [falling, partial curve, poor fit]. For `C/C(=N\NC(=O)CSc1ncccn1)c1ccc2c(c1)OCCO2`, the AC50 is 0.282 µM [falling, full curve, poor fit] under setting [2] and 0.447 µM [falling, full curve, poor fit] under setting [1].
